Results on 29 compounds are retold here after PubChem BioAssay AID1956 (SRMLSC, 2009).

Usually viability stands for a per cent measure of how many cells are alive, often set against a control.

The list shows a part of the results.

This assay is described as follows: enhancers of HSV replication in host cells, fold increase, host cell viability (AID 1956). Note: tested in PC3 cells. Conditions: HSV replication augmentation in cells; fold increase: measured here: primary screen fold increase 10 uM, at 10 µM, stronger effect = higher value; viability: measured here: host cell viability series, at 25 µM, stronger effect = lower value.
As to `O=C(OC1CN2CCC1CC2)C1c2ccccc2C=Cc2ccccc21` (stereo unspecified), the fold increase worked out at 0.8.
As to `COc1ccc(C(=O)NCC2(N3CCOCC3)CCCCC2)cc1OC`, the fold increase came out at 1.02.
Still for that read-out and setting: with `c1ccc(CN2CCC(Nc3ccccc3)CC2)cc1` the figure was 0.91; with `N#Cc1ccc(C(=O)NCC2(N3CCCCC3)CCCCC2)cc1`, 0.82; with `CCN1CCC(Nc2cccc(F)c2)CC1`, 1.04.
With `CN(C)c1ccc(C(=O)NCC2(N3CCCCC3)CCCCC2)cc1`, the fold increase is 0.92.
Turning to `Fc1ccccc1NC1CCN(Cc2ccccc2)CC1`, the fold increase came out at 0.87.
Take `COc1cc(OC)cc(C(=O)NCC2(N3CCOCC3)CCCCC2)c1`: the fold increase came to 1.01.
With `CCC(CO)(C(=O)OC1CN2CCC1CC2)c1ccccc1` (stereo unspecified), the fold increase is 1.
On the same count and under the same terms, the same measure for `CCCOc1ccc(C)cc1CN(CCCl)CCCl`: 1.04.
Take `CCOc1ncccc1C(=O)NCC1(N2CCOCC2)CCCCC1`: the fold increase worked out at 1.42 and the viability was found to be 95.6%.
For the compound `CC(C)(C)OC(=O)N1CCC(Nc2ccccc2)CC1`, the fold increase came to 1.02.
As to `O=C(NCC1(N2CCOCC2)CCCCC1)c1cc2ccccc2o1`, the fold increase was 0.913.
With `N#CC1(Nc2ccccc2)CCN(Cc2ccccc2)CC1`, the fold increase stood at 0.97.
In the case of `O=C(OC1CN2CCC1CC2)C1c2ccccc2Oc2ccccc21` (stereo unspecified), the fold increase came to 1.1.
For `CCOC(=O)N1CCC(Nc2ccc(OC)cc2)CC1`, the fold increase is 1.01.
As for `COc1ccc(C(=O)NCC2(N3CCCCC3)CCCCC2)c(OC)c1OC`, the fold increase came out at 0.94.
The same measure, in the same setting: with `Cc1ccc(OCC(C)C)c(CN(CCCl)CCCl)c1` the figure was 1.02; with `CCOc1ccc(C)cc1CN(CCCl)CCCl`, 1.13; with `COc1ccc(NC2CCN(CCc3ccccc3)CC2)c(OC)c1`, 0.73.
Regarding `O=C(NCC1(N2CCOCC2)CCCCC1)c1cc(=O)[nH]c2ccccc12`, the fold increase came out at 0.98.
On the same count and under the same terms, the same measure for `COc1ccc(NC2CCN(C(=O)OC(C)(C)C)CC2)cc1`: 0.97; for `CN1CCN(CCOC(=O)C(O)(c2ccccc2)c2ccccc2)CC1`: 0.9.
With `N#CC1(Nc2ccccc2)CCN(CCc2ccccc2)CC1`, the fold increase came to 0.98.
With `O=C(NCC1(N2CCCCC2)CCCCC1)c1cccc([N+](=O)[O-])c1`, the fold increase worked out at 1.5 and the viability was determined as 75.3%.
On to `CN1CCC(Nc2cccc(F)c2)CC1`, for which the fold increase is 1.08.
On the same count and under the same terms, the same measure for `CC(C)c1ccc(NC2CCN(C(=O)OC(C)(C)C)CC2)cc1`: 0.91; for `CN(C)c1cccc(C(=O)NCC2(N3CCCCC3)CCCCC2)c1`: 0.97; for `COc1ccc(CN(CCCl)CCCl)cc1Cl`: 0.84.
